Measurements taken from publication PMC4110025.
These are yes or no findings as the source states them, for the method shown. In cells and extracts the contact can be indirect. Some results given as binding are weak or reduced against the parent protein; the word gives no strength.

Chains of the proteins cited; added tags and fusions are not shown.
UniProt P05412: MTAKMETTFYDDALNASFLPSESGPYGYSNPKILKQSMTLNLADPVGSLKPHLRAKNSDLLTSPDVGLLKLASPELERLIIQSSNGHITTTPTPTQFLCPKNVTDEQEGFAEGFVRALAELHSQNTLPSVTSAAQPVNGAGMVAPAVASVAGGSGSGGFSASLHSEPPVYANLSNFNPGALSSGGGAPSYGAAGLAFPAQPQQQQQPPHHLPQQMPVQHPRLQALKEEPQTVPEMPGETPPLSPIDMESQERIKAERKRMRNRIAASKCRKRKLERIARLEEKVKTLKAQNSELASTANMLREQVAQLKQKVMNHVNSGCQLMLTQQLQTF

Biological target: c-Jun (human (endogenous in A549)) (UniProt P05412)
Experiment: co-IP; 0.5 mg total lysate of A549 cells (stably transfected with HPV-16 E6, E7 or controls) incubated with 2 µg anti-c-Jun antibody overnight at 4°C, protein A agarose; IP lysis buffer 20 mmol/L Tris pH 7.5, 150 mmol/L NaCl, 1% Triton X-100; blot for HIF-1α and c-Jun; normal rabbit IgG as negative …

Substance: hypoxia-inducible factor-1α (from UniProt Q16665-3 1-850)
- binding: binds
